The values below come from article PMC10313047, “During heat stress in Myxococcus xanthus, the CdbS PilZ domain protein, in concert with two PilZ-DnaK chaperones, perturbs chromosome organization and accelerates cell death” (PLOS Genetics, 2023).

No constants are given. Whether binding was seen depends on the method and setting. Some binding calls cover weakened binding; strength is not graded here. Where a sequence is shown, tags or fusion partners need not be part of it.

The assay has as its target DnaB (BACTH fusions) (Myxococcus xanthus) (UniProt Q1D285). Nature of the assay: two-hybrid; BACTH (bacterial adenylate cyclase-based two-hybrid); proteins fused to T25 and T18; blue colonies: interaction, white: none; two biological replicates.

B1: DnaB (BACTH fusions) (protein, UniProt Q1D285 1-456)
chain: MENVHEFREGRKVHEDLAAERAVLGAVLADNTLIAAVGEVVHPEDFSSPAHAQIFEAMLKLDGQSRQVDHLTLAEELKVLGHLVSVGGPAYLMRLDQVVPIASNAVQYAQIVKDQAIRRRLAQAGREIQDLASQETGELEVLLDEAERKVFLLAEKKREGDLRPVSELMEHTLDLLDKMKAAATGITGLSTGYIDLDNQLTGLHAGELIILAARPGIGKTSFAMNIAVHAALKENKAVGIFSLEMPADQLLMRLLASTARVDMKKLRGGRLTPHDEEKFQEMAGALYNAPIYIDDSGGLSPFDLRAKARRVKQRDPRLSLIVIDYLQLMHQKGKVESRQLEVAEISRALKQLAKELEVPIIALSQLSRKVEDRKDGKPLLSDLRESGSIEQDADVVMFIHRETSDEAGPDGQPAQQSNTVIPVELIIAKQRNGPIGSIDLVFLAEYTRFESRSRSE
Regarding B1, the binding entry was “binds”.
